In PMC6911156:
Results are given in words; binding and its absence hold for the method and conditions named. In cells and extracts the contact can be indirect. Some entries that bind do so weakly or less than the wild type.

The chains behind the UniProt entries cited, without tags or fusion partners. Residues count along the entry.
UniProt O75376: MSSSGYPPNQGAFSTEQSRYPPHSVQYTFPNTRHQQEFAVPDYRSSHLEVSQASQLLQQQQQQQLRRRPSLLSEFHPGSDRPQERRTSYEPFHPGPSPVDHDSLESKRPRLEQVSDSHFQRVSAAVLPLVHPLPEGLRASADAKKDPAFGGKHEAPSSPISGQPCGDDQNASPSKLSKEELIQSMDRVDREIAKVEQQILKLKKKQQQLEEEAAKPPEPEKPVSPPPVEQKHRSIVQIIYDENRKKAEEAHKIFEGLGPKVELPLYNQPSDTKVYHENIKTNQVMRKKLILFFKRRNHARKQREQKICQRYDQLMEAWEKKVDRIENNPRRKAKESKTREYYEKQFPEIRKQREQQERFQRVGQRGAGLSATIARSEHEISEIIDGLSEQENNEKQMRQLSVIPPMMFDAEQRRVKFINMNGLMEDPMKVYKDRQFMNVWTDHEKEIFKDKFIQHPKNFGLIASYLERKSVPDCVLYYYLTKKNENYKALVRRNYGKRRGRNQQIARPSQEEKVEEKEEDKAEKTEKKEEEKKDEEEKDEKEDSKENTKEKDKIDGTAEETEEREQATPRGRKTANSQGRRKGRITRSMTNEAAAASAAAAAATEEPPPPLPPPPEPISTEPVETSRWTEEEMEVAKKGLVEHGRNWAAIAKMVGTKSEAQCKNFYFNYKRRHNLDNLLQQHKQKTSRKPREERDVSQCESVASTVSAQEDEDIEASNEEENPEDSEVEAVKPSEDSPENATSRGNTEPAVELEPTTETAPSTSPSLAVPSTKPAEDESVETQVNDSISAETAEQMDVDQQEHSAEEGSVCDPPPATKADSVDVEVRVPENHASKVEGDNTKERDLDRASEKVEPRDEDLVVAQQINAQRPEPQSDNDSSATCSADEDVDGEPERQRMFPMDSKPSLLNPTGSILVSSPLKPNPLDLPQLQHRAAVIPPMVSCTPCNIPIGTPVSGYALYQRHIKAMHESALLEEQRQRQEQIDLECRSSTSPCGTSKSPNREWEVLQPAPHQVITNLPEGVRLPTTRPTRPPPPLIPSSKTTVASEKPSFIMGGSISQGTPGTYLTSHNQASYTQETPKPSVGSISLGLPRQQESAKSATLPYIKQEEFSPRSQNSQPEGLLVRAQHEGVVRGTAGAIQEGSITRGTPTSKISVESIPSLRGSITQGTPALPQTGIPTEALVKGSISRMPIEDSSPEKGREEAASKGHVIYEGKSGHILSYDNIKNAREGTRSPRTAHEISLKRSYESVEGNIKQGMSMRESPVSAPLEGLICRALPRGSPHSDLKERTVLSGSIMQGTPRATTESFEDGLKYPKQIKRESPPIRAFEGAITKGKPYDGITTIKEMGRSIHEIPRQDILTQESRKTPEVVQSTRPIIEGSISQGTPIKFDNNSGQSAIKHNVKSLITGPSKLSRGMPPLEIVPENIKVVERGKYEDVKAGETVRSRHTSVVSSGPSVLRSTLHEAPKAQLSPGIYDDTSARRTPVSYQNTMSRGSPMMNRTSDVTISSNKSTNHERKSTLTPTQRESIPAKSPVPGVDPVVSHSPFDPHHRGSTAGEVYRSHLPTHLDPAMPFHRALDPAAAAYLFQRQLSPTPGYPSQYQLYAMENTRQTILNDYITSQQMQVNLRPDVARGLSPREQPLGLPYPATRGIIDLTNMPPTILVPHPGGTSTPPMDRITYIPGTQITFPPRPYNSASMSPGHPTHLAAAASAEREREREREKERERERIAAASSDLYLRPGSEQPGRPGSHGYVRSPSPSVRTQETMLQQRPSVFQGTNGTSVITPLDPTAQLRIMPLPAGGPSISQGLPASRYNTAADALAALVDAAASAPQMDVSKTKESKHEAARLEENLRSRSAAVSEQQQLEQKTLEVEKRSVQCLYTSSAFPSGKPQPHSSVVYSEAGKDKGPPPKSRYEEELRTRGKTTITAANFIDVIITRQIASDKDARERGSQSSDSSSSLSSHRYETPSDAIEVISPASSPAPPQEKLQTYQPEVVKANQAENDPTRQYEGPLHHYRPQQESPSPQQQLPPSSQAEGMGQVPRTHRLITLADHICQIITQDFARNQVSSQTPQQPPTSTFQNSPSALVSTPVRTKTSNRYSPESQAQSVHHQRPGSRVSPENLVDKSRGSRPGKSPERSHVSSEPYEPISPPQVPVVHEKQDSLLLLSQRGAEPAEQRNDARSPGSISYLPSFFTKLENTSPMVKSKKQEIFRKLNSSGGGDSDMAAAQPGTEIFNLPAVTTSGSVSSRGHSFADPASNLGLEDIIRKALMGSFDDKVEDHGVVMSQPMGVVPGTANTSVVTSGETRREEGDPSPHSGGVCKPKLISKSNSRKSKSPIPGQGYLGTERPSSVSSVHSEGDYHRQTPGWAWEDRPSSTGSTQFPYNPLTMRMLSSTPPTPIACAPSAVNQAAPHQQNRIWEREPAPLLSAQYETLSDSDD
UniProt P80370, residues 24-383: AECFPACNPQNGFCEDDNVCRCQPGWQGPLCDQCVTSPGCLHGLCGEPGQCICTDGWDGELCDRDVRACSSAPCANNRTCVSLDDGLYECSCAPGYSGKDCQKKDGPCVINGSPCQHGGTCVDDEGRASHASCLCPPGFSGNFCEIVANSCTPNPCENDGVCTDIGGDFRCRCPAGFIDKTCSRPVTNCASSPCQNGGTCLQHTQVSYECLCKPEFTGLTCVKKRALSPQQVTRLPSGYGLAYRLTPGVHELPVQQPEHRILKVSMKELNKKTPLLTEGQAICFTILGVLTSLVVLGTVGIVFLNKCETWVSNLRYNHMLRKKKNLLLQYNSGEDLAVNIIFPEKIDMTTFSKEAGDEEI

How the values were obtained:
[1] = target: nuclear receptor corepressor 1 (NCOR1) (human (endogenous in A549 and H1299)) (UniProt O75376); test: co-IP; endogenous proteins in RIPA lysates of A549 cells (IP anti-DLK1 and IP anti-NCOR1) and H1299 cells (IP anti-NCOR1); pre-cleared, protein A/G beads, Western blot; isotype IgG as control
[2] = target: Delta-like homolog 1 (DLK1) (human (endogenous in A549 and H1299)) (UniProt P80370); test: as above

Delta-like homolog 1 (DLK1) (from UniProt P80370 24-383)
binding [1]: binds

nuclear receptor corepressor 1 (NCOR1) (from UniProt O75376 1-2440)
binding [2]: binds
